Results are given in words; binding and its absence hold for the method and conditions named. For part of these data: In cells and extracts the contact can be indirect. Some entries that bind do so weakly or less than the wild type. For part of these data: Where a sequence is shown, tags or fusion partners need not be part of it.

Chains of the proteins cited; added tags and fusions are not shown. Lines headed by an entry give the natural chain unless they say otherwise; changes in a name come on top. A line that says so, or that is headed by a name, gives the form on record, which may keep a tag or linker. Residues count along the entry.
PlxnA2-FL (full-length Plexin-A2) (P70207, residues 35-1894): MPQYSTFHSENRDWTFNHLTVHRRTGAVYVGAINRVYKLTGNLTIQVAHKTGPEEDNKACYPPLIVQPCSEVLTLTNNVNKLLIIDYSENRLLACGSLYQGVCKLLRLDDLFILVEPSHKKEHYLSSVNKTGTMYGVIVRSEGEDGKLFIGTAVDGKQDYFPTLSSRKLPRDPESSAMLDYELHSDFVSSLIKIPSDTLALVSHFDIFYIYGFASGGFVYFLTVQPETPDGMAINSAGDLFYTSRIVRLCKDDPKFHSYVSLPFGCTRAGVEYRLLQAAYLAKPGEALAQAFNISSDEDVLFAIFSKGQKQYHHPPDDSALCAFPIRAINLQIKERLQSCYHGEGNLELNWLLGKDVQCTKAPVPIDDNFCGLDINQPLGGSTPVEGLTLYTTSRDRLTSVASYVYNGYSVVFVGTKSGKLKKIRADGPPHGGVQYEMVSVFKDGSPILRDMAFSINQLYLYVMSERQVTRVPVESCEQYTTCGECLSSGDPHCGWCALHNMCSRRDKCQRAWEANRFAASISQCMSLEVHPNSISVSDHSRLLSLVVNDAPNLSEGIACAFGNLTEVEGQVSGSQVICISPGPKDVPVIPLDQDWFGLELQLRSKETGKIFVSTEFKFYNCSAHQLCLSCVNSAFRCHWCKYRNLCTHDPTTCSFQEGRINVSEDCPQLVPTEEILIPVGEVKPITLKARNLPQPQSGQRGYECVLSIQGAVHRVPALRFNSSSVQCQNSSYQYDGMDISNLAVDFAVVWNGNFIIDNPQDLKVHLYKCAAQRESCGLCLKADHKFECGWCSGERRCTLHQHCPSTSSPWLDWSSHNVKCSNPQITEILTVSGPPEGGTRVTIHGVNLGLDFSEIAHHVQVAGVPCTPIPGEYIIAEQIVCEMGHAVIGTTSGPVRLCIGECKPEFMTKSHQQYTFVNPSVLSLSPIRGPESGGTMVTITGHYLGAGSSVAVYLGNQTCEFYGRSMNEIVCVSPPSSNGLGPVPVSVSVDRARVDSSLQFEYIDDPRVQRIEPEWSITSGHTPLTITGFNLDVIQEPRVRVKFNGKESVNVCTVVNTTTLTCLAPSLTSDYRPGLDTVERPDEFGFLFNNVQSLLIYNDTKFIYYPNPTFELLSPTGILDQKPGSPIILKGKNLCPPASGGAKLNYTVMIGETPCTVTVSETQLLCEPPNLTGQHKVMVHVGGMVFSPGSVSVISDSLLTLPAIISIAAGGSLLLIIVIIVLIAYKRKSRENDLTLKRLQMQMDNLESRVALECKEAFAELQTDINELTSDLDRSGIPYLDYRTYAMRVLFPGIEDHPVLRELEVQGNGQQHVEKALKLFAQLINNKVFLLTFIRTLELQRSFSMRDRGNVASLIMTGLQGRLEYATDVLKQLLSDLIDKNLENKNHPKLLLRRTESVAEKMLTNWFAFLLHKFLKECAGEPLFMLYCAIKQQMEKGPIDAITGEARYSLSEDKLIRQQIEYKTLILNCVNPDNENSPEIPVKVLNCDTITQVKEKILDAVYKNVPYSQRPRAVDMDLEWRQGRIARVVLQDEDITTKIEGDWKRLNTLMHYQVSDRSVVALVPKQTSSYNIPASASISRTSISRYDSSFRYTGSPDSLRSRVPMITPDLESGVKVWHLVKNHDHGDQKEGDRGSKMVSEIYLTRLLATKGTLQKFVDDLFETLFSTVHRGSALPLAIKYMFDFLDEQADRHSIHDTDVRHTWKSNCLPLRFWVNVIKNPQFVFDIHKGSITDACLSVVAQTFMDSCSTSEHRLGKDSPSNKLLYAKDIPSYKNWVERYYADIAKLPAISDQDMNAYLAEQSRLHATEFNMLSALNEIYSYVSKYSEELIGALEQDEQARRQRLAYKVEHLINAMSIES
PlxnA2-A396E (P70207, form named): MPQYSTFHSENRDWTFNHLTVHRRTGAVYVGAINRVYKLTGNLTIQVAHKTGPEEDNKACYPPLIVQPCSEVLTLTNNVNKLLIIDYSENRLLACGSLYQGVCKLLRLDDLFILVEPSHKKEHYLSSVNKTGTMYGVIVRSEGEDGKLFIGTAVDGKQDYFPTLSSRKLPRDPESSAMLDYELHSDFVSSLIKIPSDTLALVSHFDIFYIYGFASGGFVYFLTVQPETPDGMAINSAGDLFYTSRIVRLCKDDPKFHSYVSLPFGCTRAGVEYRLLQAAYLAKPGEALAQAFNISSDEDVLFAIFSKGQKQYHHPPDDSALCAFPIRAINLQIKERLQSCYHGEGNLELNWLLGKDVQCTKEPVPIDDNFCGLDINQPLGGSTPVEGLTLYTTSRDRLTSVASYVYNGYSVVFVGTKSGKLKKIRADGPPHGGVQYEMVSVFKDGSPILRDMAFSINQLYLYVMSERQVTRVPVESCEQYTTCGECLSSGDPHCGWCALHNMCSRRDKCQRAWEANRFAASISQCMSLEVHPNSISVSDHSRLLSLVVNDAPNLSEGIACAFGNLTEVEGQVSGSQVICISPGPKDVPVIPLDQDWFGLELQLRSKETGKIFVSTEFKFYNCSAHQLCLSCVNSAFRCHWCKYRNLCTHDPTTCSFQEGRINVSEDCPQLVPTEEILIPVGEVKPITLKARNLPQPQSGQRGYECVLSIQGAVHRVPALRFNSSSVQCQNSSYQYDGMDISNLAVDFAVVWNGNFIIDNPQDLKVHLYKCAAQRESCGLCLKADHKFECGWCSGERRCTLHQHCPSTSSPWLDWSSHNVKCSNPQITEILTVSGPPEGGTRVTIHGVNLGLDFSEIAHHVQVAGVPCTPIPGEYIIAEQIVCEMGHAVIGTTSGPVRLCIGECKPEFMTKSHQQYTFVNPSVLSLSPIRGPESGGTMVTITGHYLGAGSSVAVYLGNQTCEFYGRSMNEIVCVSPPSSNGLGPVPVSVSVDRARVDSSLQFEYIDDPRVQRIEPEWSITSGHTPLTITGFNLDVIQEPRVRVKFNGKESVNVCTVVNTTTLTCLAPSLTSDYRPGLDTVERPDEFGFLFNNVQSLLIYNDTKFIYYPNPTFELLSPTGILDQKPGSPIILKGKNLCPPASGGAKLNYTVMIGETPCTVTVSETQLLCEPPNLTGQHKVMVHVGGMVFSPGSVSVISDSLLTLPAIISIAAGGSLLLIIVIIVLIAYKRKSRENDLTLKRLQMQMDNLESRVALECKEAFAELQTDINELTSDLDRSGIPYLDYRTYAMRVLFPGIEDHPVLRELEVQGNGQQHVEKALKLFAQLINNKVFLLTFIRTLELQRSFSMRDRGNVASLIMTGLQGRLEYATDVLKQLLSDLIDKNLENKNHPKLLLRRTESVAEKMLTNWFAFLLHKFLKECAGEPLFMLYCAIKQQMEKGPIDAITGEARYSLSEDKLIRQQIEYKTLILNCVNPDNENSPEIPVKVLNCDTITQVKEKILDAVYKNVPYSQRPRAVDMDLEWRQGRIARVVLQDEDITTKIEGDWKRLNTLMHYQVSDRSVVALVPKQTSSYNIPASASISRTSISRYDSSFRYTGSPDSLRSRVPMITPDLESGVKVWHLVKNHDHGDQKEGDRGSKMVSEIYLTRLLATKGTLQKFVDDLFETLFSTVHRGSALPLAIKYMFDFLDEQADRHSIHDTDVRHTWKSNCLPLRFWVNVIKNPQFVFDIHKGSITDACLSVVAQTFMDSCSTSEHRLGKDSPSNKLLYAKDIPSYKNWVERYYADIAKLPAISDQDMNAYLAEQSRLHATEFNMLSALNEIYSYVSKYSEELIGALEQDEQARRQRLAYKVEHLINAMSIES
UniProt P00520: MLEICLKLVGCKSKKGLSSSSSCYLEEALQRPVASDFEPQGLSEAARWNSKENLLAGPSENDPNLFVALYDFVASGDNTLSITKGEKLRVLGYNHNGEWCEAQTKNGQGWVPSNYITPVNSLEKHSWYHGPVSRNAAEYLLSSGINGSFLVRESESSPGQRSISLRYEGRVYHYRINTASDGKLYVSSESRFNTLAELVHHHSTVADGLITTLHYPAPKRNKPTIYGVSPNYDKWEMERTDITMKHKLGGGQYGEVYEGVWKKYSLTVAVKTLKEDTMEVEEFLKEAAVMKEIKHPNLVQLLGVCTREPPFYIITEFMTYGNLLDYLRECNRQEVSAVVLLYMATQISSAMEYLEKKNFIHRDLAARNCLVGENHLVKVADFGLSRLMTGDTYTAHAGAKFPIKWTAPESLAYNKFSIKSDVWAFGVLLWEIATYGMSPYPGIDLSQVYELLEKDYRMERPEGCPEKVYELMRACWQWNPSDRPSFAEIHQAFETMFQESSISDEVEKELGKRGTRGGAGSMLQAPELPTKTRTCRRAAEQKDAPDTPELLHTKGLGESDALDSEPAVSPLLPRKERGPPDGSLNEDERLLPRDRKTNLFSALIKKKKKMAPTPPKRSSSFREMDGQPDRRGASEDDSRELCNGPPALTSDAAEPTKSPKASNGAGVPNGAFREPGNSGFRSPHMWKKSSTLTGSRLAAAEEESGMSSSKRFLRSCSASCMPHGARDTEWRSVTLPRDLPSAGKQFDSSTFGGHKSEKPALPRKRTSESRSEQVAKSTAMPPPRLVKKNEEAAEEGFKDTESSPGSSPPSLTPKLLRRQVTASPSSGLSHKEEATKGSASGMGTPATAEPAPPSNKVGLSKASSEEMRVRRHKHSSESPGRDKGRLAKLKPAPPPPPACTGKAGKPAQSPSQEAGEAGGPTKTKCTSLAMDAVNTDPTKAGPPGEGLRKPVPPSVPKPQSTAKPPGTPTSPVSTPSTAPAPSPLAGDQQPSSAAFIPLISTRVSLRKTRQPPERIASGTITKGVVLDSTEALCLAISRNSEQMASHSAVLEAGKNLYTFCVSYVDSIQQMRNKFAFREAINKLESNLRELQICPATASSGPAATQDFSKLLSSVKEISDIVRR

The values below come from PMC4938514.

The target in assay [1] is PlxnA2-FL (full-length Plexin-A2) (UniProt P70207). The experiment in a line: in situ binding of AP fusion proteins to cells; conditioned media of HEK293 cells with Sema6A-AP or PlxnA2-AP applied to COS-7 cells transfected with combinations of Sema6A and PlxnA2 constructs; bound AP seen in situ.
For assay [2], the target named is PlxnA2-A396E (UniProt P70207). The assay is described as above.
Assay [3] addresses Full-length V5-tagged Abelson kinase (Abl-V5) (UniProt P00520). The experiment in a line: co-IP; co-transfected COS-7 cells, serum-starved 16h, stimulated with conditioned medium with PlexinA2-EC for 20 min at 37°C (untreated cells alongside; with or without co-transfected PlxnA2), lysed; 2h at 4°C with anti-myc or anti-V5.
Assay [4] has the same target. The experiment in a line: co-IP; as a5, but cells not treated with PlxnA2-EC; IP with anti-V5, blot with anti-myc.
Assay [5] has as its target PlxnA2-FL (full-length Plexin-A2) (UniProt P70207). In words: co-IP; co-transfected COS-7 cells lysed in NP-40 buffer (10mM HEPES pH 7.5; 100mM NaCl, 2mM EDTA, 0.5% NP-40); 2h at 4°C with anti-PlexinA2 or anti-Sema6A; protein A/G sepharose; blots with anti-PlxnA2 and anti-Sema6A.
Assay [6] deals with PlxnA2-A396E (UniProt P70207). The description is as above.

B1: Sema6A-EC-AP-Fc-(His)6 (extracellular domain of Sema6A fused to alkaline phosphatase) (Fc fusion, UniProt O35464 19-649)
chain: GFPEDSEPISISHGNYTKQYPVFVGHKPGRNTTQRHRLDIQMIMIMNRTLYVAARDHIYTVDIDTSHTEEIYCSKKLTWKSRQADVDTCRMKGKHKDECHNFIKVLLKKNDDTLFVCGTNAFNPSCRNYRVDTLETFGDEFSGMARCPYDAKHANIALFADGKLYSATVTDFLAIDAVIYRSLGDSPTLRTVKHDSKWLKEPYFVQAVDYGDYIYFFFREIAVEYNTMGKVVFPRVAQVCKNDMGGSQRVLEKQWTSFLKARLNCSVPGDSHFYFNILQAVTDVIRINGRDVVLATFSTPYNSIPGSAVCAYDMLDIANVFTGRFKEQKSPDSTWTPVPDERVPKPRPGCCAGSSSLEKYATSNEFPDDTLNFIKTHPLMDEAVPSIINRPWFLRTMVRYRLTKIAVDNAAGPYQNHTVVFLGSEKGIILKFLARIGSSGFLNGSLFLEEMNVYNPEKCSYDGVEDKRIMGMQLDRASGSLYVAFSTCVIKVPLGRCERHGKCKKTCIASRDPYCGWVRESGSCAHLSPLSRLTFEQDIERGNTDGLGDCHNSFVALNGHASSLYPSTTTSDSASRDGYESRGGMLDWNDLLEAPGSTDPLGAVSSHNHQDKKGVIRESYLKSNDQLVPVT
With B1, the binding result in assay [1] is reported as “binds”; in assay [2], “no binding”.

B2: myc-Sema6A-FL (protein, UniProt O35464 19-1031)
chain: GFPEDSEPISISHGNYTKQYPVFVGHKPGRNTTQRHRLDIQMIMIMNRTLYVAARDHIYTVDIDTSHTEEIYCSKKLTWKSRQADVDTCRMKGKHKDECHNFIKVLLKKNDDTLFVCGTNAFNPSCRNYRVDTLETFGDEFSGMARCPYDAKHANIALFADGKLYSATVTDFLAIDAVIYRSLGDSPTLRTVKHDSKWLKEPYFVQAVDYGDYIYFFFREIAVEYNTMGKVVFPRVAQVCKNDMGGSQRVLEKQWTSFLKARLNCSVPGDSHFYFNILQAVTDVIRINGRDVVLATFSTPYNSIPGSAVCAYDMLDIANVFTGRFKEQKSPDSTWTPVPDERVPKPRPGCCAGSSSLEKYATSNEFPDDTLNFIKTHPLMDEAVPSIINRPWFLRTMVRYRLTKIAVDNAAGPYQNHTVVFLGSEKGIILKFLARIGSSGFLNGSLFLEEMNVYNPEKCSYDGVEDKRIMGMQLDRASGSLYVAFSTCVIKVPLGRCERHGKCKKTCIASRDPYCGWVRESGSCAHLSPLSRLTFEQDIERGNTDGLGDCHNSFVALNGHASSLYPSTTTSDSASRDGYESRGGMLDWNDLLEAPGSTDPLGAVSSHNHQDKKGVIRESYLKSNDQLVPVTLLAIAVILAFVMGAVFSGIIVYCVCDHRRKDVAVVQRKEKELTHSRRGSMSSVTKLSGLFGDTQSKDPKPEAILTPLMHNGKLATPSNTAKMLIKADQHHLDLTALPTPESTPTLQQKRKPNRGSREWERNQNIINACTKDMPPMGSPVIPTDLPLRASPSHIPSVVVLPITQQGYQHEYVDQPKMSEVVAQMALEDQAATLEYKTIKEHLSSKSPNHGVNLVENLDSLPPKVPQREASLGPPGTSLSQTGLSKRLEMQHSSSYGLEYKRSYPTNSLTRSHQTTTLKRNNTNSSNSSHLSRNQSFGRGDNPPPAPQRVDSIQVHSSQPSGQAVTVSRQPSLNAYNSLTRSGLKRTPSLKPDVPPKPSFAPLSTSMKPNDACT
As to B2, the binding entry is on record as “binds” in assay [3] and “no binding (condition: cells not treated with PlxnA2-EC)” in assay [4].

B3: Sema6A-FL (full-length Semaphorin-6A), as transfected for the in situ binding and the Sema6A/PlxnA2 co-immunoprecipitations (protein, UniProt O35464 19-1031)
chain: B2 chain
On to B3, for which the binding result in assay [5] and in assay [6] was “binds” in each case.
